± gives the standard deviation of the averaged measurements. This is a selection; strong and weak results do not stand in their true shares. Most values lie at the level of the controls, where differences are scatter.
Compound: Nc1ncnc2c1ncn2[C@@H]1O[C@H](COP(=O)(O)OP(=O)(O)NP(=O)(O)O)[C@@H](O)[C@H]1O [adenylyl imidodiphosphate]
Assay: NP40-soluble protein abundance relative to vehicle (solubility fold change) (ratio); higher = more soluble protein in presence of AMP-PNP
How it was run: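 Across three independent experiments, values are fold changes against the detergent-processed vehicle for each replicate, based on vsn-normalised intensities. The samples were Jurkat crude lysate treated with eight concentrations (0.1 to 10 mM) for 10 min at room temperature and then 3 min at 37 °C. Lysate was solubilised with 0.8% NP40 and benzonase, ultracentrifuged, and the supernatant analysed by TMT-labelled LC-MS/MS.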

The chains behind the UniProt entries cited, without tags or fusion partners. Where a name states a change or a piece, a line headed by the entry shows the natural chain unless it says otherwise.
UniProt O00512: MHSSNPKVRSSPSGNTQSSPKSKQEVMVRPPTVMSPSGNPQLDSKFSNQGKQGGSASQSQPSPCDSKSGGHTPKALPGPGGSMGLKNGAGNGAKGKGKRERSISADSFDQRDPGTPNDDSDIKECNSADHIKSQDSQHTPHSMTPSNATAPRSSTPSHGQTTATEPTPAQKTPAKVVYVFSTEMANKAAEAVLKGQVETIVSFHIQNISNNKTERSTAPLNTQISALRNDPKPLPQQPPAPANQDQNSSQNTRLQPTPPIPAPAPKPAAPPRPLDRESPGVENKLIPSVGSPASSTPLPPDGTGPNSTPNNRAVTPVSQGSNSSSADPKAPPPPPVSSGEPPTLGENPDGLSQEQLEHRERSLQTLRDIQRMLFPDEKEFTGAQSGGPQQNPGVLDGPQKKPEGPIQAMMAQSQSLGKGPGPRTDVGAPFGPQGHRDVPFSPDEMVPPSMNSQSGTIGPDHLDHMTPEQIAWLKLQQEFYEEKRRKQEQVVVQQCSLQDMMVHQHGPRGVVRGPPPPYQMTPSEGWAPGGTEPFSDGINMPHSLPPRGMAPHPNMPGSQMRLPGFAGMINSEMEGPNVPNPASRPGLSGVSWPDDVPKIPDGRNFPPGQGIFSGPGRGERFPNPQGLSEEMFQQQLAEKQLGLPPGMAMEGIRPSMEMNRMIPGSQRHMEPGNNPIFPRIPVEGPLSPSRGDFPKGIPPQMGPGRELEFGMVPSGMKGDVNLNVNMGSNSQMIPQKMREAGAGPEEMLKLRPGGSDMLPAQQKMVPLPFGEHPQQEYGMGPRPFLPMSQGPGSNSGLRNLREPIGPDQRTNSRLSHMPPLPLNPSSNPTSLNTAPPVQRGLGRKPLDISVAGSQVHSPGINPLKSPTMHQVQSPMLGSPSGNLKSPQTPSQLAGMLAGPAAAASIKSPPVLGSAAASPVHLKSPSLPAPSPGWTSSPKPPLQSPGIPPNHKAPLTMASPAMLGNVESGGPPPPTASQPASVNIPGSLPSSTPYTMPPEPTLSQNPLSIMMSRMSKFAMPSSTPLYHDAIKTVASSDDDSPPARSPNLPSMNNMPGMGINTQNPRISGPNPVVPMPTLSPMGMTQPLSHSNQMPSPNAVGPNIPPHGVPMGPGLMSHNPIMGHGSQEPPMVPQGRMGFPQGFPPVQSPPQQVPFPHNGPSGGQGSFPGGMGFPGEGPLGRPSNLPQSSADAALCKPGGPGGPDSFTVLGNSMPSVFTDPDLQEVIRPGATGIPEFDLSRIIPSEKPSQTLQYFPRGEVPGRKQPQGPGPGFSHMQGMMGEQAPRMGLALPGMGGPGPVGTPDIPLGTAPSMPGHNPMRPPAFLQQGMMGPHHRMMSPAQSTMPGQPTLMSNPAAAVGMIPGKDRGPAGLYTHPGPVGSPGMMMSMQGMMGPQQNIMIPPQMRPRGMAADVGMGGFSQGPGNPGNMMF
UniProt Q9NXU5: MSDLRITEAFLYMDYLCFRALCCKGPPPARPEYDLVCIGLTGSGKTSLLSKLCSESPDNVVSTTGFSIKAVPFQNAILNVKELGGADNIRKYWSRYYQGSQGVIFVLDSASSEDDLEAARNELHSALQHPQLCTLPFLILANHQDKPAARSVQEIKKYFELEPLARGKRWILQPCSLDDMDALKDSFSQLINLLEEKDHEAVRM
UniProt P07203, whole entry: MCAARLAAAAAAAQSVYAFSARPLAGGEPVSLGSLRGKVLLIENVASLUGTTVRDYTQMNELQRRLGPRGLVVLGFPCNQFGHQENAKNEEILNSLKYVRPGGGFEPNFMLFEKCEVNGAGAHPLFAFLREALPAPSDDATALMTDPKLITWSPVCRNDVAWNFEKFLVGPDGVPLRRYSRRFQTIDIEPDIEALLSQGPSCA
UniProt Q96T88: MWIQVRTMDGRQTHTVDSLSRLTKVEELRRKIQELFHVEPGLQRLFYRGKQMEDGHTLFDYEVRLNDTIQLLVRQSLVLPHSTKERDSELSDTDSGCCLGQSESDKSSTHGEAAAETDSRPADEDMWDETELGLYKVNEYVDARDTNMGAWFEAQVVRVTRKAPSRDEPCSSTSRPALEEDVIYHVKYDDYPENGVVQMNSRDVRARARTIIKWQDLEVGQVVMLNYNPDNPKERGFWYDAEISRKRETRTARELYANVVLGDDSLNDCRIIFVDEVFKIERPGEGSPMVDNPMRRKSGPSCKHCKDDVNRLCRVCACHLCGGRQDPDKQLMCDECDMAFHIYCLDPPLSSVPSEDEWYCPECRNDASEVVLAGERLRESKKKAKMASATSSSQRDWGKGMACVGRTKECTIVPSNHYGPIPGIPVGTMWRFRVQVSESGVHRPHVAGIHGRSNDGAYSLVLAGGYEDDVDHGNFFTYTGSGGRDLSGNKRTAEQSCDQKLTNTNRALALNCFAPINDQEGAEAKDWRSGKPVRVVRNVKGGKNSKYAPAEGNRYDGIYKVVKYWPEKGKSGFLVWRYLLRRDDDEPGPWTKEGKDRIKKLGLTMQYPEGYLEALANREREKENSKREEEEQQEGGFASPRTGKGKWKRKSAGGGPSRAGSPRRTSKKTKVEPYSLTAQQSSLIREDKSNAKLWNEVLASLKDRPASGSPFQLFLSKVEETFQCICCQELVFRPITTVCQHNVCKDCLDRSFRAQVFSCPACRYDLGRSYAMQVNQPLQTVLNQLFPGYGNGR
UniProt Q9Y6I9: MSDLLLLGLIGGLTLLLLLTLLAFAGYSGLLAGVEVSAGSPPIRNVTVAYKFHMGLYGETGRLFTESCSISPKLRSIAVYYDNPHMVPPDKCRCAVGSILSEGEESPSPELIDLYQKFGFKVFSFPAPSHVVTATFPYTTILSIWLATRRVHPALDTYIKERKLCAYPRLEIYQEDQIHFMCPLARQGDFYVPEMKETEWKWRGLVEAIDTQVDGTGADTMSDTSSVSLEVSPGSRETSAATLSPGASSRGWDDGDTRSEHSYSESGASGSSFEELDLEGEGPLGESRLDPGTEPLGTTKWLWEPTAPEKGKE
UniProt Q9Y3E1: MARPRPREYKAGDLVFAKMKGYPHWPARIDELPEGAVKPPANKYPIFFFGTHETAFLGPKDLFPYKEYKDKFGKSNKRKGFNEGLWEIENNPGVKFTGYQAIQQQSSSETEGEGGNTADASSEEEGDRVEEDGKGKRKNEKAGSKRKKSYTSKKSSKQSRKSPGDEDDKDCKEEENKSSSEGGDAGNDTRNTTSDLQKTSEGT
UniProt P46379: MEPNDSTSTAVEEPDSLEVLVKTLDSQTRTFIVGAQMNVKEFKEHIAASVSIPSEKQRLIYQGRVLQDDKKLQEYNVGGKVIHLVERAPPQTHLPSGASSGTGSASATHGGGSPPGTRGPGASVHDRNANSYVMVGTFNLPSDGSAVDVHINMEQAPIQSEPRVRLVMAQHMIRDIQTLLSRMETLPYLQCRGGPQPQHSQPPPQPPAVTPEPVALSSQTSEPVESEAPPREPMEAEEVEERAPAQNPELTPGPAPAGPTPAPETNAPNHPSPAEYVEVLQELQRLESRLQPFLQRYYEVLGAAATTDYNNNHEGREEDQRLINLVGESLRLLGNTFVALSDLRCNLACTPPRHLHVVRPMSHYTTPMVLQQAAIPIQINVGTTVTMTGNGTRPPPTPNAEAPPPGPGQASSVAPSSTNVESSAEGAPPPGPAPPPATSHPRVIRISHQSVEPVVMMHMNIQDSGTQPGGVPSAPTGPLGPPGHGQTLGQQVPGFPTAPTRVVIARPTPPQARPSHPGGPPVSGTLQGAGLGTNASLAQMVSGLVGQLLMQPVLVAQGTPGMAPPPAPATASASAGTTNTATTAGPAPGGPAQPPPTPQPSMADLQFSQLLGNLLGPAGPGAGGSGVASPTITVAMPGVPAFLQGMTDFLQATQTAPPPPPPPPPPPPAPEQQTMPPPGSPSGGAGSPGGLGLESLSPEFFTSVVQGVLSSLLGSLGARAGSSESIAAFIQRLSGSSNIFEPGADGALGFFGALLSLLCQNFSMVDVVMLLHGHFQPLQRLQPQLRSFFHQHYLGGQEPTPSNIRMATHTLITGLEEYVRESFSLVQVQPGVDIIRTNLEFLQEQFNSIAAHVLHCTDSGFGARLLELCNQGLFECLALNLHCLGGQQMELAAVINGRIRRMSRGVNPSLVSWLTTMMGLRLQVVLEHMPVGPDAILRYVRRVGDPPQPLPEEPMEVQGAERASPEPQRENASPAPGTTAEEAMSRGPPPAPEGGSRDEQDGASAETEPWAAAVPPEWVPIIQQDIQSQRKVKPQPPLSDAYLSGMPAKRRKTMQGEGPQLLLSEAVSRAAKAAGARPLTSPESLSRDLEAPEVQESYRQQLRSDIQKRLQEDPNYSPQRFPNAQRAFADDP
UniProt Q5JPI9: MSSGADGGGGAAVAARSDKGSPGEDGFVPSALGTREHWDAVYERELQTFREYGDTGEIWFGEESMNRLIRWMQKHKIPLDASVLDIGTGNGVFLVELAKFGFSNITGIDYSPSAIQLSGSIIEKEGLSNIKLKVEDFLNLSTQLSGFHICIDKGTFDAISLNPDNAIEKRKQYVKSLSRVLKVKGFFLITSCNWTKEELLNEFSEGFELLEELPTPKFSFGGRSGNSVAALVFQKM
UniProt Q9Y371: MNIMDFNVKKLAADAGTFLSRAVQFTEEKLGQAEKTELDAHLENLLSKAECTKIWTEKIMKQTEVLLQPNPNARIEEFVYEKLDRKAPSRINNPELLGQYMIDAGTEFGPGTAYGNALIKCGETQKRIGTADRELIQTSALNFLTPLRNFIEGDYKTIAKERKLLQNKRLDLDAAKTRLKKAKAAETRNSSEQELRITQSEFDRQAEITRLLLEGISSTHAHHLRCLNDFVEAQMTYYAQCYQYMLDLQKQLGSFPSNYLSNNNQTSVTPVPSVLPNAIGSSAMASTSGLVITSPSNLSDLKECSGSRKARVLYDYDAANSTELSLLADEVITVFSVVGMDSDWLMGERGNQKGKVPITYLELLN
UniProt Q6DD87: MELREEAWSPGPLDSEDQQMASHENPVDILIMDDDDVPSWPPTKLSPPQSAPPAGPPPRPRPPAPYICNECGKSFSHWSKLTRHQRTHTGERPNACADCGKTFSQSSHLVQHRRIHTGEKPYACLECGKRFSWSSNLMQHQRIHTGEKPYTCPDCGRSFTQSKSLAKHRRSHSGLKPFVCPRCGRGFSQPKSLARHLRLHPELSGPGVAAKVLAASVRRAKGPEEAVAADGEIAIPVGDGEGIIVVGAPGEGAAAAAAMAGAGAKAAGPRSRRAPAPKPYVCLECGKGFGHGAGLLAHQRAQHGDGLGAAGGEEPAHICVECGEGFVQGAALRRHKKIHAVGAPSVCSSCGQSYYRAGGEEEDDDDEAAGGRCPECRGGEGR
UniProt Q8NB49: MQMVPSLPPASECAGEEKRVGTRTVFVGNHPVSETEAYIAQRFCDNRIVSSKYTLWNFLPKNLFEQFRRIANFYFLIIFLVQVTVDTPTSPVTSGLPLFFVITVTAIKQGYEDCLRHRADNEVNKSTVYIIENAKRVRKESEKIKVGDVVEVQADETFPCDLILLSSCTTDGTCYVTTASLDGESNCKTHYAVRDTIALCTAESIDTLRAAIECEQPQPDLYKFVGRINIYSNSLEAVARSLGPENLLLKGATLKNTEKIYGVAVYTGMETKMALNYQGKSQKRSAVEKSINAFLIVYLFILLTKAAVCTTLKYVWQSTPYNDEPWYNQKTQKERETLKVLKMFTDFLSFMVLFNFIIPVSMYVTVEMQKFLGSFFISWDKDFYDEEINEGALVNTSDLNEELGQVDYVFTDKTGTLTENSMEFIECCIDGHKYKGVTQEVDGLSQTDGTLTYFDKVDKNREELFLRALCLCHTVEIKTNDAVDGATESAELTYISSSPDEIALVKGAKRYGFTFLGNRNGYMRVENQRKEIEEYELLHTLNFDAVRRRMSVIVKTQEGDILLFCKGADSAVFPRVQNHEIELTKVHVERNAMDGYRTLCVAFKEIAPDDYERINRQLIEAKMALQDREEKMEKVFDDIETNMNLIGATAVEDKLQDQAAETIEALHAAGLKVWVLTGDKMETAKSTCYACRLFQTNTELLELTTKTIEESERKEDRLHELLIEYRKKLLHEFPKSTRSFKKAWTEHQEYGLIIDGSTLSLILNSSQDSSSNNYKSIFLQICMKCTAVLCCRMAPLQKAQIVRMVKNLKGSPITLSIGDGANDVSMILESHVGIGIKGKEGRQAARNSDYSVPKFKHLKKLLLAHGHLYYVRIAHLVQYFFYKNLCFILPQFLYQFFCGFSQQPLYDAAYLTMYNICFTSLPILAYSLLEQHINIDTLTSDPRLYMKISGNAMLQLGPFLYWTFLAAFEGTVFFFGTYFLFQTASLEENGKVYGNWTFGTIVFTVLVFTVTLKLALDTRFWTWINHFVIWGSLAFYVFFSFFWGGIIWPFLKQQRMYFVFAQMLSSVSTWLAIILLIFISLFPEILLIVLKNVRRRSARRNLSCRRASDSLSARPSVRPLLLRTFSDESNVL
UniProt P49720: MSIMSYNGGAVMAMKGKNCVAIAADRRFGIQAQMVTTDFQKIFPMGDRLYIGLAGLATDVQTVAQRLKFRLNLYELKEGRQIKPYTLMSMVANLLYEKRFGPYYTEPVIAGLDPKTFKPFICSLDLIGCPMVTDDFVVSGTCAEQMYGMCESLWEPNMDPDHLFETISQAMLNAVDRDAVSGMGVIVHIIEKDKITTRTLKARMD

A0A024RAC6 (UniProt Q14241)
NP40-soluble protein abundance (concentration: 0.1mM): 0.979 ± 0.021
NP40-soluble protein abundance (concentration: 0.5mM): 1.02 ± 0.051

A0A087WVP1|Q14517 (UniProt Q14517)
NP40-soluble protein abundance (concentration: 0.1mM): 1.01 ± 0.052
NP40-soluble protein abundance (concentration: 0.5mM): 1.01 ± 0.073

A0A087WTU9|A0A087WZY3|Q8TCU4 and related entries (UniProt Q8TCU4)
NP40-soluble protein abundance (concentration: 0.1mM): 1.02 ± 0.049
NP40-soluble protein abundance (concentration: 0.5mM): 1 ± 0.079

A0A087WVQ6|Q00610 and related entries (UniProt Q00610)
NP40-soluble protein abundance (concentration: 0.1mM): 1.01 ± 0.03
NP40-soluble protein abundance (concentration: 0.5mM): 0.976 ± 0.076

A0A075B6T4|Q9NVX7 and related entries (UniProt Q9NVX7)
NP40-soluble protein abundance (concentration: 0.1mM): 1.2 ± 0.086
NP40-soluble protein abundance (concentration: 0.5mM): 0.981 ± 0.073

A0A087WV05|Q99417 (UniProt Q99417)
NP40-soluble protein abundance (concentration: 0.1mM): 0.9979 ± 0.0074
NP40-soluble protein abundance (concentration: 0.5mM): 0.972 ± 0.063

A0A087WVU5|O00512 (UniProt O00512)
NP40-soluble protein abundance (concentration: 0.1mM): 0.986 ± 0.011
NP40-soluble protein abundance (concentration: 0.5mM): 0.983 ± 0.035

A0A087WW14|Q0VDG4 and related entries (UniProt Q0VDG4)
NP40-soluble protein abundance (concentration: 0.1mM): 1 ± 0.021
NP40-soluble protein abundance (concentration: 0.5mM): 0.974 ± 0.03

A0A087WTM5|H7BYJ1 and related entries (UniProt Q969K3)
NP40-soluble protein abundance (concentration: 0.1mM): 0.974 ± 0.03
NP40-soluble protein abundance (concentration: 0.5mM): 0.942 ± 0.05

A0A087WUU7|Q96GX5 and related entries (UniProt Q96GX5)
NP40-soluble protein abundance (concentration: 0.1mM): 0.9886 ± 0.0034
NP40-soluble protein abundance (concentration: 0.5mM): 0.998 ± 0.039

A0A087WV23|Q5T123 and related entries (UniProt Q9H299)
NP40-soluble protein abundance (concentration: 0.1mM): 0.987 ± 0.046
NP40-soluble protein abundance (concentration: 0.5mM): 1.04 ± 0.072

A0A087WT30|Q8N5I9 (UniProt Q8N5I9)
NP40-soluble protein abundance (concentration: 0.1mM): 1.05 ± 0.033
NP40-soluble protein abundance (concentration: 0.5mM): 1.19 ± 0.065

A0A087WUW9|Q9NXU5 (UniProt Q9NXU5)
NP40-soluble protein abundance (concentration: 0.1mM): 0.973 ± 0.018
NP40-soluble protein abundance (concentration: 0.5mM): 1.01 ± 0.047

A0A024R4Q5|G5E9B5 and related entries (UniProt P0C1Z6)
NP40-soluble protein abundance (concentration: 0.1mM): 1.01 ± 0.04
NP40-soluble protein abundance (concentration: 0.5mM): 0.981 ± 0.065

A0A024R4M0|P46781 (UniProt P46781)
NP40-soluble protein abundance (concentration: 0.1mM): 1.1 ± 0.067
NP40-soluble protein abundance (concentration: 0.5mM): 1.04 ± 0.13

A0A075B6T1|Q9C0C7 and related entries (UniProt Q9C0C7)
NP40-soluble protein abundance (concentration: 0.1mM): 0.979 ± 0.012
NP40-soluble protein abundance (concentration: 0.5mM): 0.989 ± 0.02

A0A087WUB9|Q8WYA6 (UniProt Q8WYA6)
NP40-soluble protein abundance (concentration: 0.1mM): 1.02 ± 0.028
NP40-soluble protein abundance (concentration: 0.5mM): 1.02 ± 0.032

A0A075B738|P16284 and related entries (UniProt P16284)
NP40-soluble protein abundance (concentration: 0.1mM): 0.981 ± 0.015
NP40-soluble protein abundance (concentration: 0.5mM): 0.98 ± 0.031

A0A087WVF7|Q9NZM3 and related entries (UniProt Q9NZM3)
NP40-soluble protein abundance (concentration: 0.1mM): 0.9725 ± 0.007
NP40-soluble protein abundance (concentration: 0.5mM): 1.01 ± 0.056

A0A087WTJ2|Q8WWP7 (UniProt Q8WWP7)
NP40-soluble protein abundance (concentration: 0.1mM): 1.05 ± 0.012
NP40-soluble protein abundance (concentration: 0.5mM): 1.01 ± 0.014

A0A087WW06|Q96AY4 (UniProt Q96AY4)
NP40-soluble protein abundance (concentration: 0.1mM): 1.01 ± 0.0045
NP40-soluble protein abundance (concentration: 0.5mM): 0.99 ± 0.026

A0A087WUX8|A0A087WYF7|Q6UXV4 (UniProt Q6UXV4)
NP40-soluble protein abundance (concentration: 0.1mM): 1.02 ± 0.056
NP40-soluble protein abundance (concentration: 0.5mM): 1.04 ± 0.036

A0A024R1V6|P35227 (UniProt P35227)
NP40-soluble protein abundance (concentration: 0.1mM): 1.01 ± 0.018
NP40-soluble protein abundance (concentration: 0.5mM): 1.03 ± 0.033

A0A075B6F3|H0Y7V4 and related entries (UniProt Q96JB1)
NP40-soluble protein abundance (concentration: 0.1mM): 0.926 ± 0.074
NP40-soluble protein abundance (concentration: 0.5mM): 0.956 ± 0.04

A0A087WVS8|Q70IA6 and related entries (UniProt Q70IA6)
NP40-soluble protein abundance (concentration: 0.1mM): 0.976 ± 0.02
NP40-soluble protein abundance (concentration: 0.5mM): 0.969 ± 0.055

A0A087WUQ6|P07203 (UniProt P07203)
NP40-soluble protein abundance (concentration: 0.1mM): 1.005 ± 0.0051
NP40-soluble protein abundance (concentration: 0.5mM): 0.979 ± 0.055

A0A024R4E5|Q00341 (UniProt Q00341)
NP40-soluble protein abundance (concentration: 0.1mM): 0.984 ± 0.019
NP40-soluble protein abundance (concentration: 0.5mM): 0.97 ± 0.011

A0A087WUL0|Q3LXA3 (UniProt Q3LXA3)
NP40-soluble protein abundance (concentration: 0.1mM): 0.997 ± 0.027
NP40-soluble protein abundance (concentration: 0.5mM): 0.993 ± 0.022

A0A087WUK2|O14979 and related entries (UniProt O14979)
NP40-soluble protein abundance (concentration: 0.1mM): 0.994 ± 0.056
NP40-soluble protein abundance (concentration: 0.5mM): 1.05 ± 0.09

A0A087WVZ0|Q9Y5U8 (UniProt Q9Y5U8)
NP40-soluble protein abundance (concentration: 0.1mM): 1.019 ± 0.0083
NP40-soluble protein abundance (concentration: 0.5mM): 1 ± 0.013

A0A087WT44|P30519 and related entries (UniProt P30519)
NP40-soluble protein abundance (concentration: 0.1mM): 1 ± 0.019
NP40-soluble protein abundance (concentration: 0.5mM): 0.993 ± 0.024

A0A087WTW0|A0A087WVR3|Q96T88 and related entries (UniProt Q96T88)
NP40-soluble protein abundance (concentration: 0.1mM): 1 ± 0.027
NP40-soluble protein abundance (concentration: 0.5mM): 1.01 ± 0.033

A0A087WU02|F8VPA6 and related entries (UniProt Q96RQ1)
NP40-soluble protein abundance (concentration: 0.1mM): 0.999 ± 0.053
NP40-soluble protein abundance (concentration: 0.5mM): 1.01 ± 0.054

A0A087WUS0|E7ETK0 and related entries (UniProt P62847)
NP40-soluble protein abundance (concentration: 0.1mM): 1.04 ± 0.058
NP40-soluble protein abundance (concentration: 0.5mM): 1.02 ± 0.057

A0A087WTU3|Q9Y6I9 (UniProt Q9Y6I9)
NP40-soluble protein abundance (concentration: 0.1mM): 0.9941 ± 0.0095
NP40-soluble protein abundance (concentration: 0.5mM): 0.995 ± 0.027

A0A087WTW5|Q9UKL3 (UniProt Q9UKL3)
NP40-soluble protein abundance (concentration: 0.1mM): 1.02 ± 0.035
NP40-soluble protein abundance (concentration: 0.5mM): 1.01 ± 0.02

A0A087WU64|A6NMQ1 and related entries (UniProt P09884)
NP40-soluble protein abundance (concentration: 0.1mM): 0.962 ± 0.02
NP40-soluble protein abundance (concentration: 0.5mM): 0.971 ± 0.019

A0A087WT20|Q9NV06 (UniProt Q9NV06)
NP40-soluble protein abundance (concentration: 0.1mM): 1.044 ± 0.006
NP40-soluble protein abundance (concentration: 0.5mM): 0.9452 ± 0.0036

A0A087WUC6|E9PI68 and related entries (UniProt Q15005)
NP40-soluble protein abundance (concentration: 0.1mM): 1.01 ± 0.019
NP40-soluble protein abundance (concentration: 0.5mM): 1 ± 0.013

A0A024R216|Q9Y3E1 (UniProt Q9Y3E1)
NP40-soluble protein abundance (concentration: 0.1mM): 0.935 ± 0.044
NP40-soluble protein abundance (concentration: 0.5mM): 0.995 ± 0.038

A0A024RCR6|A0A0G2JK23|P46379 and related entries (UniProt P46379)
NP40-soluble protein abundance (concentration: 0.1mM): 0.984 ± 0.043
NP40-soluble protein abundance (concentration: 0.5mM): 0.966 ± 0.049

A0A087WVN1|Q5JPI9 (UniProt Q5JPI9)
NP40-soluble protein abundance (concentration: 0.1mM): 1.006 ± 0.0084
NP40-soluble protein abundance (concentration: 0.5mM): 0.9952 ± 0.0068

A0A087WW40|Q9Y371 and related entries (UniProt Q9Y371)
NP40-soluble protein abundance (concentration: 0.1mM): 1 ± 0.022
NP40-soluble protein abundance (concentration: 0.5mM): 1.02 ± 0.029

A0A087WTT2|Q5JWB9 and related entries (UniProt Q96A57)
NP40-soluble protein abundance (concentration: 0.1mM): 0.989 ± 0.03
NP40-soluble protein abundance (concentration: 0.5mM): 1.04 ± 0.024

A0A087WUZ9|Q16760 and related entries (UniProt Q16760)
NP40-soluble protein abundance (concentration: 0.1mM): 0.979 ± 0.053
NP40-soluble protein abundance (concentration: 0.5mM): 0.971 ± 0.02

A0A024R7E8|K7EMV4 and related entries (UniProt P60002)
NP40-soluble protein abundance (concentration: 0.1mM): 1.01 ± 0.044
NP40-soluble protein abundance (concentration: 0.5mM): 1.06 ± 0.074

A0A087WUA5|Q9H223 (UniProt Q9H223)
NP40-soluble protein abundance (concentration: 0.1mM): 1.02 ± 0.025
NP40-soluble protein abundance (concentration: 0.5mM): 0.9997 ± 0.0082

A0A024R4K9|A0A087WZA9|A0A087X266|Q9BXJ8 and related entries (UniProt Q9BXJ8)
NP40-soluble protein abundance (concentration: 0.1mM): 0.952 ± 0.0082
NP40-soluble protein abundance (concentration: 0.5mM): 1.014 ± 0.0026

A0A087WUD1|Q6DD87 (UniProt Q6DD87)
NP40-soluble protein abundance (concentration: 0.1mM): 1.001 ± 0.0051
NP40-soluble protein abundance (concentration: 0.5mM): 1 ± 0.039

A0A087WU62|A0A087X2D5|A0A0G2JMS5|Q9BRJ2 (UniProt Q9BRJ2)
NP40-soluble protein abundance (concentration: 0.1mM): 1.02 ± 0.023
NP40-soluble protein abundance (concentration: 0.5mM): 0.988 ± 0.082

A0A087WV73|P46087 and related entries (UniProt P46087)
NP40-soluble protein abundance (concentration: 0.1mM): 1 ± 0.013
NP40-soluble protein abundance (concentration: 0.5mM): 1.04 ± 0.05

A0A024QZP7|P06493 (UniProt P06493)
NP40-soluble protein abundance (concentration: 0.1mM): 1.02 ± 0.017
NP40-soluble protein abundance (concentration: 0.5mM): 1.03 ± 0.017

A0A087WT12|A0A087X2I2|K7ERP4 and related entries (UniProt P36969)
NP40-soluble protein abundance (concentration: 0.1mM): 1.004 ± 0.0085
NP40-soluble protein abundance (concentration: 0.5mM): 0.998 ± 0.055

A0A087WUI1|Q9Y388 (UniProt Q9Y388)
NP40-soluble protein abundance (concentration: 0.1mM): 1.05 ± 0.033
NP40-soluble protein abundance (concentration: 0.5mM): 1.05 ± 0.028

A0A024R644|O75503 (UniProt O75503)
NP40-soluble protein abundance (concentration: 0.1mM): 0.976 ± 0.049
NP40-soluble protein abundance (concentration: 0.5mM): 1.036 ± 0.0081

A0A067XG54|Q8NB49 and related entries (UniProt Q8NB49)
NP40-soluble protein abundance (concentration: 0.1mM): 0.996 ± 0.054
NP40-soluble protein abundance (concentration: 0.5mM): 0.972 ± 0.047

A0A087WUL2|P49720 (UniProt P49720)
NP40-soluble protein abundance (concentration: 0.1mM): 1.04 ± 0.022
NP40-soluble protein abundance (concentration: 0.5mM): 1.03 ± 0.11

A0A075B746|P82921 (UniProt P82921)
NP40-soluble protein abundance (concentration: 0.1mM): 1.001 ± 0.0087
NP40-soluble protein abundance (concentration: 0.5mM): 1.02 ± 0.023
